PubChem BioAssay AID1224829 | NIAID – 2016
Screen: 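Follow-up of TLR4-NF-kappaB regulators using six separate siRNAs for each gene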 (follow-up of hits). System: mouse RAW264.7 G9 macrophage reporter cells. Reagents: single siRNA against mouse genes, 100 nM. Time to read-out: 2 days of siRNA knock-down, then 40 min of LPS before fixing. Challenge: LPS (Salmonella minnesota R595) at 10 ng/ml. Read-out: 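High-content images after 40 min LPS exposure; GFP-p65 nucleus to surrounding ring signal ratio, normalised to plate median and non-targeting control wells, expressed as z-score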. Scale: p65 translocation z-score: higher = more nuclear NF-kappaB p65 after LPS. Active means: 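An siRNA is called active when the mean z-score of its two replicates is above 2 or below -2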. Meaning of the calls: active = changed p65 translocation (either direction); inactive = no clear change.
Here is an unselected part of about 3,800 reagents. 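Calls cover raised and lowered translocation; gene median uses one vendor's three siRNAs; qiagen siRNAs acted more weakly than ambion siRNAs.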 The numbers tell different reagents against one gene apart. Not all columns of the deposit are shown.

p65 translocation z-score, replicate mean | Call | gene | siRNA no. | siRNA vendor or control pool
-2.94 | active | Ncoa5 (nuclear receptor coactivator 5) | 1 | ambion single siRNA
-2.75 | active | Ncoa5 (nuclear receptor coactivator 5) | 2 | ambion single siRNA
-2.71 | active | Ncoa5 (nuclear receptor coactivator 5) | 3 | ambion single siRNA
-0.389 | inactive | Ncoa5 (nuclear receptor coactivator 5) | 4 | qiagen single siRNA
0.92 | inactive | Ncoa5 (nuclear receptor coactivator 5) | 5 | qiagen single siRNA
-3.8 | active | Ncoa5 (nuclear receptor coactivator 5) | 6 | qiagen single siRNA
0.336 | inactive | Slc5a7 | 1 | ambion single siRNA
-5.75 | active | Slc5a7 | 2 | ambion single siRNA
-2.83 | active | Slc5a7 | 3 | ambion single siRNA
2.81 | active | Slc5a7 | 4 | qiagen single siRNA
0.896 | inactive | Slc5a7 | 5 | qiagen single siRNA
-2.81 | active | Slc5a7 | 6 | qiagen single siRNA
1.46 | inactive | Itpkb (inositol 1,4,5-trisphosphate 3-kinase B) | 1 | qiagen single siRNA
1.78 | inactive | Itpkb (inositol 1,4,5-trisphosphate 3-kinase B) | 2 | qiagen single siRNA
-4.24 | active | Itpkb (inositol 1,4,5-trisphosphate 3-kinase B) | 3 | qiagen single siRNA
-2.26 | active | Tmem116 (transmembrane protein 116) | 1 | ambion single siRNA
-2.65 | active | Tmem116 (transmembrane protein 116) | 2 | ambion single siRNA
-1.03 | inactive | Tmem116 (transmembrane protein 116) | 3 | ambion single siRNA
1.33 | inactive | Tmem116 (transmembrane protein 116) | 4 | qiagen single siRNA
-0.526 | inactive | Tmem116 (transmembrane protein 116) | 5 | qiagen single siRNA
-0.137 | inactive | Tmem116 (transmembrane protein 116) | 6 | qiagen single siRNA
2.25 | active | Hsp90b1 (heat shock protein 90, beta (Grp94), member 1) | 1 | ambion single siRNA
-3.03 | active | Hsp90b1 (heat shock protein 90, beta (Grp94), member 1) | 2 | ambion single siRNA
0.966 | inactive | Hsp90b1 (heat shock protein 90, beta (Grp94), member 1) | 3 | ambion single siRNA
2.03 | active | Hsp90b1 (heat shock protein 90, beta (Grp94), member 1) | 4 | qiagen single siRNA
-0.447 | inactive | Hsp90b1 (heat shock protein 90, beta (Grp94), member 1) | 5 | qiagen single siRNA
-3.27 | active | Hsp90b1 (heat shock protein 90, beta (Grp94), member 1) | 6 | qiagen single siRNA
-1 | inactive | Egfl7 (EGF-like domain 7) | 1 | ambion single siRNA
-1.07 | inactive | Egfl7 (EGF-like domain 7) | 2 | ambion single siRNA
-4.08 | active | Egfl7 (EGF-like domain 7) | 3 | ambion single siRNA
0.11 | inactive | Egfl7 (EGF-like domain 7) | 4 | qiagen single siRNA
-1.51 | inactive | Egfl7 (EGF-like domain 7) | 5 | qiagen single siRNA
-0.191 | inactive | Egfl7 (EGF-like domain 7) | 6 | qiagen single siRNA
2.01 | active | Vps35 (VPS35 retromer complex component) | 1 | ambion single siRNA
-0.45 | inactive | Vps35 (VPS35 retromer complex component) | 2 | ambion single siRNA
-1.35 | inactive | Vps35 (VPS35 retromer complex component) | 3 | ambion single siRNA
1.2 | inactive | Vps35 (VPS35 retromer complex component) | 4 | qiagen single siRNA
-2.13 | active | Vps35 (VPS35 retromer complex component) | 5 | qiagen single siRNA
-0.445 | inactive | Vps35 (VPS35 retromer complex component) | 6 | qiagen single siRNA

Look-ups from the list:
Value for Tmem116 (transmembrane protein 116) #2, siRNA vendor or control pool ambion single siRNA under “p65 translocation z-score, replicate mean”: -2.65
Ncoa5 (nuclear receptor coactivator 5) #4, siRNA vendor or control pool qiagen single siRNA, Call: inactive
Slc5a7 #5, siRNA vendor or control pool qiagen single siRNA, Call = inactive
